# Only a part is listed here, and it is no random draw. Calls are pooled over several reports, among them a noisy single-well screen. The list shows a part of the results.
# Sequences of proteins named here, by UniProt entry; tags and fusion partners are left off. A line that says so, or that is headed by a name, gives the form on record, which may keep a tag or linker.
# UniProt A2ASV2, as listed by the source: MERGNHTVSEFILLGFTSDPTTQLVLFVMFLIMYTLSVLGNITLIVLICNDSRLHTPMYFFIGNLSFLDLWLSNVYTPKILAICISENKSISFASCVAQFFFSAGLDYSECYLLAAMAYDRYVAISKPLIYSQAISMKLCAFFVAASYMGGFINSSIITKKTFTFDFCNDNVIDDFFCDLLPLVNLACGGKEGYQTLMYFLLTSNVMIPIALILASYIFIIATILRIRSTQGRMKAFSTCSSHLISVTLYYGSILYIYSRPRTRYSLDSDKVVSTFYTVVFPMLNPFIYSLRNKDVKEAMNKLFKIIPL
# UniProt A2AVA9, as listed by the source: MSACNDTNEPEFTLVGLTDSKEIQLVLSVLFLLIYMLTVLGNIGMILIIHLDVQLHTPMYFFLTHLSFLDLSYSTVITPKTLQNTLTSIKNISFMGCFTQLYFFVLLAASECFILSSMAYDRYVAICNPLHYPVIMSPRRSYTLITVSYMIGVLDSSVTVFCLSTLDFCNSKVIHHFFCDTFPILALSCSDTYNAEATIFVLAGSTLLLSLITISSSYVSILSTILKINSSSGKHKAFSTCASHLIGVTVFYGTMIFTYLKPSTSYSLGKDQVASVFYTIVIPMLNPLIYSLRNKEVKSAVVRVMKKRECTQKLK
# UniProt A2AVC3, as listed by the source: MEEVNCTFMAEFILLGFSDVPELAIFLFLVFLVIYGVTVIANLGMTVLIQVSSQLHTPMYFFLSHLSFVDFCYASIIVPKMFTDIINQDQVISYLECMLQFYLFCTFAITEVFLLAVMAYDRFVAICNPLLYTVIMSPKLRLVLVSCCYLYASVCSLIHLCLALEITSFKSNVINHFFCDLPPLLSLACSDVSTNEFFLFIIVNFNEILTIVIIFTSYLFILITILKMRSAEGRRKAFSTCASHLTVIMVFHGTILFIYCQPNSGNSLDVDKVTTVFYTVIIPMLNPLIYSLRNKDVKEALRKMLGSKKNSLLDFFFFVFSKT
# What was measured:
# Settings in all cases: stereoisomer not certain
# UniProt A2ATE5 = target: T1, UniProt A2ATE5
# T1 sequence (whole entry): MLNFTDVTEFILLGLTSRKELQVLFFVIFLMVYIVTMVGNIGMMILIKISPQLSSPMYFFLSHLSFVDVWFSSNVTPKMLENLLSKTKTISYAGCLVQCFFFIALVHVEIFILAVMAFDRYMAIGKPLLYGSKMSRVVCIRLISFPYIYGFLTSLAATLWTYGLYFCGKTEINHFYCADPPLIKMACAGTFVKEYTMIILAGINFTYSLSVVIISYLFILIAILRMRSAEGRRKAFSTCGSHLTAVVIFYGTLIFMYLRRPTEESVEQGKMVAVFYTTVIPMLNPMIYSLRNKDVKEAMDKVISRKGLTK
# In short: (§1)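 Transient luciferase assays in mammalian cell lines were common, though methods varied by source. The values come from published papers and their supplementary material, with extra details from the original authors when needed. Responsive refers to a measured signal the original authors judged statistically different from baseline, and non-responsive (inactive) to the remainder.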
# UniProt A2AVB0 = target: T2, UniProt A2AVB0
# T2 sequence (whole entry): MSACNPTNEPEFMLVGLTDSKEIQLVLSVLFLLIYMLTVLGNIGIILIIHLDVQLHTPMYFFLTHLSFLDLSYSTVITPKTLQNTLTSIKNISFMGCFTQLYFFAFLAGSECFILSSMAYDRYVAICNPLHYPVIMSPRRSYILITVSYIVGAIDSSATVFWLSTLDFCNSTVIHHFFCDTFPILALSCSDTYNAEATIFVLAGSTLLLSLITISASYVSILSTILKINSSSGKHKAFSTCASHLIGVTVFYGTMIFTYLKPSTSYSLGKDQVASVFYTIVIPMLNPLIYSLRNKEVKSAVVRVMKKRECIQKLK
# In short: as §1
# UniProt A2AVB5 = target: T3, UniProt A2AVB5
# T3 sequence (whole entry): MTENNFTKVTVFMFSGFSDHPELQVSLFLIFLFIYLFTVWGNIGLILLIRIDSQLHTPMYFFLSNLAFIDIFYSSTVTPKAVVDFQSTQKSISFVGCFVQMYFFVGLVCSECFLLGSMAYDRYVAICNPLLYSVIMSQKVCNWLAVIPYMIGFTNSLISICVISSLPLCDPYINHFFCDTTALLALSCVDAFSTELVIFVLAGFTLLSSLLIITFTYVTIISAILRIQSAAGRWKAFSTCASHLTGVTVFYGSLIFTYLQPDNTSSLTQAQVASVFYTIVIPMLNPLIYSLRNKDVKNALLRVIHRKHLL
# In short: as §1
# UniProt B2RVX8 = target: T4, UniProt B2RVX8
# T4 sequence (whole entry): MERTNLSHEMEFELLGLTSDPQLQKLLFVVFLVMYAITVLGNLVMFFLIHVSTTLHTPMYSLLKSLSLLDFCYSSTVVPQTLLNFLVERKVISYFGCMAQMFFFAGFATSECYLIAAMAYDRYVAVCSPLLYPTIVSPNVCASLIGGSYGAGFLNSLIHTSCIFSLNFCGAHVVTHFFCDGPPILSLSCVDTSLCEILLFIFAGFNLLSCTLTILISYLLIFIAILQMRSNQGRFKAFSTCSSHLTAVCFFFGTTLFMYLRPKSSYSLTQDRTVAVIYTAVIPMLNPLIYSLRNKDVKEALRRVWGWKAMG
# In short: as §1
# [1] = tested on: Q7TRX1 G106A A108G A152G V205I
# In short: as §1
# Q7TRX1 G106A = tested on: Q7TRX1 G106A
# In short: as §1
# Q7TRX1 V205I = tested on: Q7TRX1 V205I
# In short: as §1
# UniProt A2ASV2 = target: UniProt A2ASV2
# In short: as §1
# UniProt A2AVA9 = target: UniProt A2AVA9
# In short: as §1
# UniProt A2AVC3 = target: UniProt A2AVC3
# In short: as §1
# 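Also: active if original authors judged signal statistically different from baseline.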
smiles,measurement,setting,value
CC12CCC(CC1)C(C)(C)O2,odorant receptor agonist call,UniProt A2ATE5,inactive
same,odorant receptor agonist call,UniProt A2AVB0,inactive
CCCCCCC=O,odorant receptor agonist call,UniProt A2ATE5,inactive
same,odorant receptor agonist call,UniProt A2AVB0,inactive
same,odorant receptor agonist call,UniProt A2AVB5,inactive
same,odorant receptor agonist call,UniProt B2RVX8,inactive
CC(C)=CCCC(C)=CC=O,odorant receptor agonist call,UniProt A2ATE5,inactive
same,odorant receptor agonist call,UniProt A2AVB0,inactive
CCCCCOC(C)=O,odorant receptor agonist call,UniProt A2ATE5,inactive
same,odorant receptor agonist call,UniProt A2AVB0,inactive
C=C(C)C1CC=C(C)C(=O)C1 (stereo not drawn),odorant receptor agonist call,[1],active
same,odorant receptor agonist call,Q7TRX1 G106A,active
same,odorant receptor agonist call,Q7TRX1 V205I,active
same,odorant receptor agonist call,UniProt A2ASV2,inactive
same,odorant receptor agonist call,UniProt A2ATE5,inactive
same,odorant receptor agonist call,UniProt A2AVA9,inactive
same,odorant receptor agonist call,UniProt A2AVB0,inactive
same,odorant receptor agonist call,UniProt A2AVB5,inactive
same,odorant receptor agonist call,UniProt A2AVC3,inactive
same,odorant receptor agonist call,UniProt B2RVX8,inactive
CCCCCC(C)=O,odorant receptor agonist call,UniProt A2ATE5,inactive
same,odorant receptor agonist call,UniProt A2AVB0,inactive
same,odorant receptor agonist call,UniProt A2AVB5,inactive
same,odorant receptor agonist call,UniProt B2RVX8,inactive
CC(C)CC(=O)O,odorant receptor agonist call,UniProt A2ATE5,inactive
same,odorant receptor agonist call,UniProt A2AVB0,inactive
CCCCCCCCC=O,odorant receptor agonist call,UniProt A2ATE5,inactive
same,odorant receptor agonist call,UniProt A2AVB0,inactive
same,odorant receptor agonist call,UniProt A2AVB5,inactive
same,odorant receptor agonist call,UniProt B2RVX8,inactive
O=C1CCCCC1,odorant receptor agonist call,UniProt A2AVB5,inactive
same,odorant receptor agonist call,UniProt B2RVX8,inactive
CCCCO,odorant receptor agonist call,UniProt A2ATE5,inactive
same,odorant receptor agonist call,UniProt A2AVB0,inactive
COc1ccccc1O,odorant receptor agonist call,UniProt A2ATE5,inactive
same,odorant receptor agonist call,UniProt A2AVB0,inactive
CC(=O)c1ccccc1,odorant receptor agonist call,UniProt A2ASV2,inactive
same,odorant receptor agonist call,UniProt A2ATE5,inactive
same,odorant receptor agonist call,UniProt A2AVA9,active
same,odorant receptor agonist call,UniProt A2AVB0,inactive
same,odorant receptor agonist call,UniProt A2AVB5,active
same,odorant receptor agonist call,UniProt A2AVC3,active
same,odorant receptor agonist call,UniProt B2RVX8,inactive
CC12CCC(C1)C(C)(C)C2=O (stereo not drawn),odorant receptor agonist call,UniProt A2AVB5,inactive
same,odorant receptor agonist call,UniProt B2RVX8,inactive
CCCCCC(=O)O,odorant receptor agonist call,UniProt A2ATE5,inactive
same,odorant receptor agonist call,UniProt A2AVB0,inactive
same,odorant receptor agonist call,UniProt A2AVB5,inactive
same,odorant receptor agonist call,UniProt B2RVX8,inactive
CC(=O)C(C)=O,odorant receptor agonist call,UniProt A2ATE5,inactive
same,odorant receptor agonist call,UniProt A2AVB0,inactive
C=CC(C)(O)CCC=C(C)C (stereo not drawn),odorant receptor agonist call,UniProt A2ATE5,inactive
same,odorant receptor agonist call,UniProt A2AVB0,inactive
CCCCCCCCCC=O,odorant receptor agonist call,UniProt A2ATE5,inactive
same,odorant receptor agonist call,UniProt A2AVB0,inactive
same,odorant receptor agonist call,UniProt A2AVB5,inactive
same,odorant receptor agonist call,UniProt B2RVX8,inactive
CC1COCc2cc3c(cc21)C(C)(C)C(C)C3(C)C (stereo not drawn),odorant receptor agonist call,UniProt A2ATE5,inactive
same,odorant receptor agonist call,UniProt A2AVB0,inactive
CC(C)(O)CCCC1=CCC(C=O)CC1 (stereo not drawn),odorant receptor agonist call,UniProt A2ATE5,inactive
same,odorant receptor agonist call,UniProt A2AVB0,inactive
same,odorant receptor agonist call,UniProt A2AVB5,inactive
same,odorant receptor agonist call,UniProt B2RVX8,inactive
COC(=O)c1ccccc1O,odorant receptor agonist call,UniProt A2ATE5,inactive
same,odorant receptor agonist call,UniProt A2AVB0,inactive
C=CCc1ccc(O)c(OC)c1,odorant receptor agonist call,UniProt A2ATE5,inactive
same,odorant receptor agonist call,UniProt A2AVB0,inactive
O=C1CCCCCCCCCCCCCCO1,odorant receptor agonist call,UniProt A2ATE5,inactive
same,odorant receptor agonist call,UniProt A2AVB0,inactive
c1cnccn1,odorant receptor agonist call,UniProt A2ATE5,inactive
same,odorant receptor agonist call,UniProt A2AVB0,inactive
CC(C)C=O,odorant receptor agonist call,UniProt A2ATE5,inactive
same,odorant receptor agonist call,UniProt A2AVB0,inactive
CCCCCCCC=O,odorant receptor agonist call,UniProt A2ATE5,inactive
same,odorant receptor agonist call,UniProt A2AVB0,inactive
same,odorant receptor agonist call,UniProt A2AVB5,inactive
same,odorant receptor agonist call,UniProt B2RVX8,inactive
COc1cc(C=O)ccc1O,odorant receptor agonist call,UniProt A2ATE5,inactive
same,odorant receptor agonist call,UniProt A2AVB0,inactive
C=CCc1ccc(OC)c(OC)c1,odorant receptor agonist call,UniProt A2ATE5,inactive
same,odorant receptor agonist call,UniProt A2AVB0,inactive
CC(=O)OC1CC2CCC1(C)C2(C)C (stereo not drawn),odorant receptor agonist call,UniProt A2ATE5,inactive
same,odorant receptor agonist call,UniProt A2AVB0,inactive

# Five successive records already listed, quoted:
smiles,measurement,setting,value
CC(C)(O)CCCC1=CCC(C=O)CC1 (stereo not drawn),odorant receptor agonist call,UniProt B2RVX8,inactive
COC(=O)c1ccccc1O,odorant receptor agonist call,UniProt A2ATE5,inactive
same,odorant receptor agonist call,UniProt A2AVB0,inactive
C=CCc1ccc(O)c(OC)c1,odorant receptor agonist call,UniProt A2ATE5,inactive
same,odorant receptor agonist call,UniProt A2AVB0,inactive

# Reference: the M2OR odorant receptor database
